For the assay, the system named is P388 leukemia ip, CD2F1 mice, survival T/C. The experiment in a line: NCI In Vivo Anticancer Drug Screen. Data for tumor model P388 Leukemia (intraperitoneal) in CD2F1 (CDF1) mice. Conditions: T/C endpoint: median survival time, higher T/C = longer survival.
Where [1] appears, read: dose: 100.0 mg/kg/injection, schedule: Q04DX003 (ip), vehicle: saline with Tween-80.
[2] abbreviates: dose: 50.0 mg/kg/injection, schedule: Q01DX009 (ip), vehicle: saline with Tween-80.
[3] abbreviates: dose: 100.0 mg/kg/injection, schedule: Q01DX009 (ip), vehicle: saline with Tween-80.
Where [4] appears, read: dose: 100.0 mg/kg/injection, schedule: Q01DX001 (ip), vehicle: Klucel (hydroxypropylcellulose) (HPC).
Where [5] appears, read: dose: 400.0 mg/kg/injection, schedule: Q01DX001 (ip), vehicle: Klucel (hydroxypropylcellulose) (HPC).
Where [6] appears, read: dose: 240.0 mg/kg/injection, schedule: Q01DX005 (ip), vehicle: saline with Tween-80.
[7] abbreviates: dose: 25.0 mg/kg/injection, schedule: Q01DX009 (ip), vehicle: saline with Tween-80.
[8] abbreviates: dose: 200.0 mg/kg/injection, schedule: Q01DX009 (ip), vehicle: saline with Tween-80.
[9] abbreviates: dose: 50.0 mg/kg/injection, schedule: Q01DX009 (ip), vehicle: Klucel (hydroxypropylcellulose) (HPC).
Setting [10] is: dose: 100.0 mg/kg/injection, schedule: Q01DX009 (ip), vehicle: Klucel (hydroxypropylcellulose) (HPC).
The mark [11] stands for this setting: dose: 200.0 mg/kg/injection, schedule: Q01DX009 (ip), vehicle: Klucel (hydroxypropylcellulose) (HPC).

The structures appear in SMILES notation. The list does not hold the whole screen: it is rich in T/C values a quarter to a half above the control, in often repeated tests (any T/C) and in doses without a T/C. Further doses and runs are listed elsewhere. T/C is the treated group as % of the vehicle group. Some entries give survivors of the animals treated and no T/C: the source holds a T/C of zero for them, seemingly a mark for toxic or unscored doses. Some doses without a T/C left all or most animals alive at the check, yet need not have been tolerated: survival well below the control is almost never listed, so the zero probably covers shortened survival too. Counts of survivors are from the toxicity check (mostly the fifth day) where no day follows; animals may have died later. Schedule codes are those of the source, taken here to give the interval after Q, in days (D) or hours (H), and the number of doses after X. Some entries were tested several times; their values stand side by side, smallest first. Some schedules carry Z or #; the key to these is not given. Where survival is the endpoint, the PubChem record calls one and a half times the control and up active, and a quarter to a half above the control has no call in these data; cut-offs in other NCI protocols can differ. Some T/C values carry the count of animals alive at the toxicity check (mostly the fifth day); without a count, all were alive then.

As to `COc1cc(C=Nc2cccc(Cl)c2)ccc1N(CCCl)CCCl`, the T/C (dose: 33.0 mg/kg/injection, schedule: Q04DX003 (ip), vehicle: saline with Tween-80) is 135 % of control; the T/C (dose: 50.0 mg/kg/injection, schedule: Q04DX003 (ip), vehicle: saline with Tween-80) is 145 % of control [5 of 6 alive]; the T/C (dose: 75.0 mg/kg/injection, schedule: Q04DX003 (ip), vehicle: saline with Tween-80) is 125 % of control [4 of 6 alive]. Under setting [1], the survivor count is given as 5 of 6.

Turning to `CC(C)(C)C1=CS(=O)(=O)C(C(C)(C)C)C(O)O1` (stereo not drawn), the survivor count under setting [2] is 3 of 6 and the survivor count under setting [3] is given as 0 of 6.

Take `CCc1cccc2c(NCCCCCCCCNc3c4ccccc4nc4c(CC)cccc34)c3ccccc3nc12`: the T/C (dose: 5.0 mg/kg/injection, schedule: Q## X009 (ip), vehicle: lactic acid) is 130 % of control; the T/C (dose: 10.0 mg/kg/injection, schedule: Q01DX005 (ip), vehicle: other) is 127 % of control [2 of 3 alive]; the T/C (dose: 15.0 mg/kg/injection, schedule: Q01DX005 (ip), vehicle: other) is 127 % of control [2 of 3 alive]. The survivor count was 1 of 3 (dose: 20.0 mg/kg/injection, schedule: Q01DX005 (ip), vehicle: other); 2 of 6 (dose: 20.0 mg/kg/injection, schedule: Q## X009 (ip), vehicle: lactic acid); 0 of 6 (dose: 40.0 mg/kg/injection, schedule: Q## X009 (ip), vehicle: lactic acid).

Turning to `CCOP(=O)(O)C1CCCC(C)[N-]1.CCOP(=O)(O)C1CCCC(C)[N-]1.[Cu+2]` (stereo not drawn), the survivor count (dose: 50.0 mg/kg/injection, schedule: Q04DX003 (ip), vehicle: Klucel (hydroxypropylcellulose) (HPC)) is recorded as 0 of 6; the survivor count (dose: 100.0 mg/kg/injection, schedule: Q04DX003 (ip), vehicle: Klucel (hydroxypropylcellulose) (HPC)) is given as 0 of 6; the survivor count (dose: 200.0 mg/kg/injection, schedule: Q04DX003 (ip), vehicle: Klucel (hydroxypropylcellulose) (HPC)) is 0 of 6; the survivor count (dose: 400.0 mg/kg/injection, schedule: Q04DX003 (ip), vehicle: Klucel (hydroxypropylcellulose) (HPC)) is on record as 0 of 6.

As to `c1ccc(-c2ccc(-c3cn4c(n3)SCC4)cc2)cc1`, the survivor count is recorded as 5 of 6 under setting [4] and 6 of 6 under setting [5].

With `O=C1c2ccccc2C(=O)N1Cc1cccc(I)c1`, the survivor count (dose: 240.0 mg/kg/injection, schedule: Q01DX005 (ip), vehicle: Klucel (hydroxypropylcellulose) (HPC)) is 6 of 6.

As to `COc1cc(C(c2cc3c(cc2OC(C)=O)OCO3)C(C(C)=O)C(C)=O)cc(OC)c1OC(C)=O` (stereo not drawn), the survivor count under setting [6] is reported as 6 of 6.

On to `ClCCN(CCCl)CCCN1c2ccccc2Sc2ccccc21`, for which the T/C is 131 % of control (dose: 6.25 mg/kg/injection, schedule: Q01DX009 (ip), vehicle: saline with Tween-80) and 140 % of control (dose: 12.5 mg/kg/injection, schedule: Q01DX009 (ip), vehicle: saline with Tween-80). Moreover, the survivor count under setting [7] was 6 of 6.

Consider `C1CSCCSCCCSCCSC1`, for which, under setting [8], the survivor count is 6 of 6.

For the compound `CCCCCC(O)/C=C/[C@H]1C(O)CC2OC(CSCCC(=O)O)C[C@@H]21` (stereo partly drawn), the survivor count (dose: 400.0 mg/kg/injection, schedule: Q04DX002 (ip), vehicle: saline with Tween-80) was 6 of 6.

Take `CCOc1ccc(/C=N/NC(=S)NC23CC4CC(CC(C4)C2)C3)cc1OCC`: the survivor count by setting is: (dose: 120.0 mg/kg/injection, schedule: Q01DX005 (ip), vehicle: saline with Tween-80) 6 of 6; under setting [6], 5 of 6.

With `COC1(c2ccccc2)N=C(N)NC1(OC)c1ccccc1` (stereo not drawn), the survivor count by setting is: (dose: 50.0 mg/kg/injection, schedule: Q04DX002 (ip), vehicle: saline) 3 of 6; (dose: 100.0 mg/kg/injection, schedule: Q04DX002 (ip), vehicle: saline) 0 of 6; (dose: 200.0 mg/kg/injection, schedule: Q04DX002 (ip), vehicle: saline) 0 of 6.

Turning to `C[CH2][Pb]([CH2]C)([CH2]C)[N]1C(=O)c2ccccc2C1=O`, the survivor count is recorded as 6 of 6 (dose: 6.25 mg/kg/injection, schedule: Q01DX009 (ip), vehicle: Klucel (hydroxypropylcellulose) (HPC)); 0 of 6 (dose: 12.5 mg/kg/injection, schedule: Q01DX009 (ip), vehicle: Klucel (hydroxypropylcellulose) (HPC)); 0 of 6 (dose: 25.0 mg/kg/injection, schedule: Q01DX009 (ip), vehicle: Klucel (hydroxypropylcellulose) (HPC)).

As to `CCCCCCCCCCCCCC#CC(=O)O`, the survivor count under setting [2] was 4 of 6, the survivor count under setting [3] is recorded as 3 of 6 and the survivor count under setting [8] is listed as 1 of 6.

`COc1cc(NC(=O)CN(CCCl)CCCl)cc(OC)c1OC`: the T/C reads like this: (dose: 50.0 mg/kg/injection, schedule: Q01DX009 (ip), vehicle: saline sonified) 145 % of control; under setting [1], 131 % of control; (dose: 200.0 mg/kg/injection, schedule: Q04DX003 (ip), vehicle: saline with Tween-80) 145 % of control [5 of 6 alive]; (dose: 300.0 mg/kg/injection, schedule: Q04DX003 (ip), vehicle: saline sonified) 125 % of control [5 of 6 alive]. For the same compound, the survivor count is, setting by setting: under setting [8], 1 of 6; (dose: 400.0 mg/kg/injection, schedule: Q04DX003 (ip), vehicle: saline with Tween-80) 6 of 6.

On to `COc1cc2c(c(OC)c1OC)-c1ccc(OC)c(=O)cc1[C@@H](N(C)C(=O)C(F)(F)F)CC2`, for which the T/C is 126 % of control (dose: 0.31 mg/kg/injection, schedule: Q01DX009 (ip), vehicle: Klucel (hydroxypropylcellulose) (HPC)); 135 and 139 % of control (dose: 0.62 mg/kg/injection, schedule: Q01DX009 (ip), vehicle: Klucel (hydroxypropylcellulose) (HPC)). Moreover, the survivor count was 5 of 6 and 6 of 6 (dose: 2.5 mg/kg/injection, schedule: Q01DX009 (ip), vehicle: Klucel (hydroxypropylcellulose) (HPC)); 3 of 6 (dose: 5.0 mg/kg/injection, schedule: Q01DX009 (ip), vehicle: Klucel (hydroxypropylcellulose) (HPC)); 0 of 6 (dose: 10.0 mg/kg/injection, schedule: Q01DX009 (ip), vehicle: Klucel (hydroxypropylcellulose) (HPC)).

Consider `CCC(=O)OCc1c(-c2ccccc2)nc2sccn12`, for which the survivor count runs as follows: under setting [4], 4 of 6; under setting [5], 2 of 6.

As for `CCN(CC)Cc1c[nH]c2ccccc12`, the survivor count is given as 0 of 6 under setting [9], 1 of 6 under setting [10] and 0 of 6 under setting [11].

`CN(C)C(=S)S(=O)(=O)c1ccccc1`: the survivor count is on record as 3 of 6 under setting [9], 0 of 6 under setting [10] and 0 of 6 under setting [11].

As for `O=[N+]([O-])c1ccc(C=C2C(Cl)=C(Cl)C(Cl)=C2Cl)cc1`, the survivor count under setting [7] was 3 of 6.

Consider `CCCCCCCCOCC(O)CN(CCO)CCO` (stereo not drawn), for which the survivor count is reported as 5 of 6 (dose: 100.0 mg/kg/injection, schedule: Q01DX009 (ip), vehicle: saline) and 0 of 6 (dose: 200.0 mg/kg/injection, schedule: Q01DX009 (ip), vehicle: saline).

These data come from PubChem BioAssay AID330 (DTP/NCI, 2004).
